Results from patent US20220204643A1.
Like-named read-outs stand apart in the source and are kept apart here. These are yes or no findings as the source states them, for the method shown. Some entries that bind do so weakly or less than the wild type. Values belong to the binder of their own block, whether it stands above or below them.

Chains of the proteins cited; added tags and fusions are not shown. Lines headed by an entry give the natural chain unless they say otherwise; changes in a name come on top.
UniProt P61604: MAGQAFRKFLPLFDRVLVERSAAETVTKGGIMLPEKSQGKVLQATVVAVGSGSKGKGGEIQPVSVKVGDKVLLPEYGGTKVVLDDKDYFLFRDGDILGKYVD
UniProt P20851: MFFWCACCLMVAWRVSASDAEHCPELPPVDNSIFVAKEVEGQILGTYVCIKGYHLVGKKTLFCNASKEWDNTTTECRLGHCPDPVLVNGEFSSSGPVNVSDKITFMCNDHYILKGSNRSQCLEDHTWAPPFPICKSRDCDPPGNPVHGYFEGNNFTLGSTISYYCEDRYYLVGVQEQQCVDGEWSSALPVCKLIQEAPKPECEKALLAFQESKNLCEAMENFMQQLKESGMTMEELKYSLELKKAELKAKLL

Key:
LIM homeobox 5 (human) = target: T1, LIM homeobox 5 (human) (UniProt Q9H2C1); test: protein array
T1 sequence: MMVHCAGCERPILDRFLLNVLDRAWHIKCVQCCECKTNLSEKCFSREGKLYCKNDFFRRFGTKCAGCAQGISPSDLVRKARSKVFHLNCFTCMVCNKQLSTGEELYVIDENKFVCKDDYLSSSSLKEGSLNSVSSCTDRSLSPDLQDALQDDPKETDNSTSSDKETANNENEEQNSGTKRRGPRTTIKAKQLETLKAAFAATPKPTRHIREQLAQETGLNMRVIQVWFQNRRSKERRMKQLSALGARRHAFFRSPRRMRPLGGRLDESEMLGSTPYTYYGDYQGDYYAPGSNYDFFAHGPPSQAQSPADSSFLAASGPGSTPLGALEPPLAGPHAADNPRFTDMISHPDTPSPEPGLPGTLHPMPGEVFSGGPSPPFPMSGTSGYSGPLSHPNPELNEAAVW

[1] = target: T2, RP2 activator of ARL3 GTPase (human) (UniProt O75695); test: protein array
T2 sequence: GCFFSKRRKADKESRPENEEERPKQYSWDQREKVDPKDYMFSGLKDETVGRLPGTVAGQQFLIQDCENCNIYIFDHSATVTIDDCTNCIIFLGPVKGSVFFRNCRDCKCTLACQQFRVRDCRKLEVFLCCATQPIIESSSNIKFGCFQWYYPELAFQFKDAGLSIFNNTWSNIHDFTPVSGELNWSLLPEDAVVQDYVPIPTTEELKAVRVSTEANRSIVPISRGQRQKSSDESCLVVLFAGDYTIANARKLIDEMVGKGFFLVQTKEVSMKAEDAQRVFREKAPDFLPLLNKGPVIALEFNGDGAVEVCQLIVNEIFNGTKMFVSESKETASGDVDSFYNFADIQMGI

[2] = target: T2, RP2 activator of ARL3 GTPase (human)
[3] = target: T3, Zinc finger protein 260 (human) (UniProt Q3ZCT1); test: protein array
T3 sequence: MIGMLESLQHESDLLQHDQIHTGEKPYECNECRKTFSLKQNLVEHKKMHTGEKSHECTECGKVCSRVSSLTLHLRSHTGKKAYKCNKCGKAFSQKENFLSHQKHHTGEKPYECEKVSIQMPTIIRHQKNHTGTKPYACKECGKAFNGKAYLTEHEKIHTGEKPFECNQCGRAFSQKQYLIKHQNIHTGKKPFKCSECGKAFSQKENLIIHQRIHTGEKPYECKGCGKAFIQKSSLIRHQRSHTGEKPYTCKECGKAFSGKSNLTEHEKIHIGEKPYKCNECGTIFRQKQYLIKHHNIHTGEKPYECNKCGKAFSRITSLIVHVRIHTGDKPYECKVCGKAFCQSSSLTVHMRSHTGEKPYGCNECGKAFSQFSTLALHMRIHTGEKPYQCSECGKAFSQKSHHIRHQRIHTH

[4] = target: T4, disheveled segment polarity protein 3 (human) (UniProt Q92997); test: protein array
T4 sequence: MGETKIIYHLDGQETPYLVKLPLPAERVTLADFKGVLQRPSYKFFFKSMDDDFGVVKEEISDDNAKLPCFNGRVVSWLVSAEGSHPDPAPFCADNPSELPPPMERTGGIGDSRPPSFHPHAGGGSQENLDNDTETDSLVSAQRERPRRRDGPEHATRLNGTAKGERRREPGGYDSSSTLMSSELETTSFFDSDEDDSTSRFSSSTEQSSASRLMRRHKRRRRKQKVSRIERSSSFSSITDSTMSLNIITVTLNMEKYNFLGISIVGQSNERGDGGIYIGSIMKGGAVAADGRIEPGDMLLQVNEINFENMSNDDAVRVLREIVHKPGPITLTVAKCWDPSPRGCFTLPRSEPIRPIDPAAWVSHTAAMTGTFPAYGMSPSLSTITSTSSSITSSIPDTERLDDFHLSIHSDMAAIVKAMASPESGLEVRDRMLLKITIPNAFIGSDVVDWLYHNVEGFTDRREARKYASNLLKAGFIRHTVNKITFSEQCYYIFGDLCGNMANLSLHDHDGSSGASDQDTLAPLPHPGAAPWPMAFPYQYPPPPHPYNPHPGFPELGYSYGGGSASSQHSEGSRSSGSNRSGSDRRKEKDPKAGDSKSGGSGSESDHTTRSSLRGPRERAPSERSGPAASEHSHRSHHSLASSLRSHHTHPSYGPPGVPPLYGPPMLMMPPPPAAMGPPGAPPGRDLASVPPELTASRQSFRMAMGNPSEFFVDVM

[5] = target: T3, Zinc finger protein 260 (human)
[6] = target: T5, dishevelled segment polarity protein 3 (human) (UniProt Q92997)
T5 sequence: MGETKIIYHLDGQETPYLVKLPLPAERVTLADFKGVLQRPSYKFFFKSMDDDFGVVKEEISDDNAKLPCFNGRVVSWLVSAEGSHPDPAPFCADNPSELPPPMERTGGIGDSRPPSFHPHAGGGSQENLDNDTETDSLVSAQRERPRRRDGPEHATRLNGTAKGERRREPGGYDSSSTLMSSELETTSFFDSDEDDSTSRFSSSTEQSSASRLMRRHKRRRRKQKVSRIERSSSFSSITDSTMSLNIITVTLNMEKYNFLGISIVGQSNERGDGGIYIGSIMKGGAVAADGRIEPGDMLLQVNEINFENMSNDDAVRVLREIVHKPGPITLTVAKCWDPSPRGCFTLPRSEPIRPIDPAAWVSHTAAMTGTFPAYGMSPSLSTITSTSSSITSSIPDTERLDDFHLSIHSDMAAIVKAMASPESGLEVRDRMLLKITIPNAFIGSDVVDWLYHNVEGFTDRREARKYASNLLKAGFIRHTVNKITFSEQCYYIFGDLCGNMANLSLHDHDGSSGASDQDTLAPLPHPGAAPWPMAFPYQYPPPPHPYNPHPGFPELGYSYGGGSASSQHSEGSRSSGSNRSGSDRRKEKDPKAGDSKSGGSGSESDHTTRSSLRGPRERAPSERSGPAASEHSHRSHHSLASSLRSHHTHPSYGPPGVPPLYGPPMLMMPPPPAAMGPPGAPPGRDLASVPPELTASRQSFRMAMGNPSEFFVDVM

[7] = target: heat shock protein family E (Hsp10) member 1 (human) (UniProt P61604); test: protein array
[8] = target: heat shock protein family E (Hsp10) member 1 (human) (UniProt P61604)
[9] = target: T6, protein phosphatase 1 regulatory subunit 27 (human) (UniProt Q86WC6); test: protein array
T6 sequence: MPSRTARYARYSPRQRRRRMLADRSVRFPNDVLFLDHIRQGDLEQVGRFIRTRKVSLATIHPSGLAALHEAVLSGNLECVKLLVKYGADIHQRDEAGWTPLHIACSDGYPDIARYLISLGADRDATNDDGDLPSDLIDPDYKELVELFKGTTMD

[10] = target: T6, protein phosphatase 1 regulatory subunit 27 (human)
[11] = target: Complement component 4 binding protein beta (human) (UniProt P20851); test: protein array
[12] = target: Complement component 4 binding protein beta (human) (UniProt P20851)
protein array = substrate: T7, C-C motif chemokine ligand 18 (human) (UniProt P55774); test: protein array
T7 sequence: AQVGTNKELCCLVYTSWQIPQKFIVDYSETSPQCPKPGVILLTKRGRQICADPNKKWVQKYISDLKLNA

[13] = substrate: T7, 
[14] = target: spermatogenesis associated 33, transcript variant 2 (human) (UniProt Q96N06); test: protein array, with experimental replicate
[15] = target: spermatogenesis associated 33, transcript variant 2 (human) (UniProt Q96N06)
[16] = target: T8, thioesterase superfamily member 6, transcript variant 1 (human) (UniProt Q8WUY1); test: protein array
T8 sequence: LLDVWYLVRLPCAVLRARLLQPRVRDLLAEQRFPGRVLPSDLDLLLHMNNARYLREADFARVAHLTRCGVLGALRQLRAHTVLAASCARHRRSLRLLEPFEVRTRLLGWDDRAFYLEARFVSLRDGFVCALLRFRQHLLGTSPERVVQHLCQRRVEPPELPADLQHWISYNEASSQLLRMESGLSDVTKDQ

[17] = target: T8, thioesterase superfamily member 6, transcript variant 1 (human)

- binding (LIM homeobox 5 (human)): binds
B1: TCOL1009 (antibody, V domains shown)
VH: PVQLVQSGAEVKKPGASVKVSCKASGDTFPNYVISWVRQAPGQGLEWVGCINTNNGKTNYVQKLQGRVILTTDTSTNTANMELRSLRFDDTAVYYCARERGQVRSYGMDVWGQGTAVTVSS
VL: PYELTQPPSVSVSPGQTANITCSGDKLGDICVCWYQQKPGQSPVLVIYQHNKRPSGIPERFSGSNSGNTATLTISATQATDEAIYYCQSWDSSSVLFGGGTKLTVLG

- binding [1]: binds
- binding [2]: binds
B2: TUVM1001 (antibody, V domains shown)
VH: SVQLVESGGGVVQPGRSLRLSCAASGFTFSDYGMHWVRQAPGKGLEWVAVIWYDGSNEYYADSVKGRFTISRDNSKNTVYLQMNSLGAEDTAVYYCARDDVPRGYDYWGQGTLVTVSS
VL: VIQMTQSPSSLSASVGDRVTIACRASQGIRNDLGWYQQKPGRAPKLLIYAASTLQSGVPSRFSGSGSGTDFTLTIYSLQPEDFATYYCLQNYNYPWTFGQGTKVEIQG

- binding [3]: binds
- binding [4]: binds
- binding [5]: binds
- binding [6]: binds
B3: TCER1005 (antibody, V domains shown)
VH: AVQLVQSGAEVKKPGESLKISCRGSGYNFISHWISWVRQMPGKGLEWQWLGRIDPSDSYTNYSPSFRGHVTISVDKSVNTAYLQWNSLKASDTAMYYCARLSRDGYTIEHFDYWGQGTLVTVSS
VL: EIVLTQSPGTLSLSPGERATLSCRASQSVSSSYLAWYQQKPGQAPRLLIYDASSRAAGVPDRFSGSGSGTDFTLTISRLEPEDFAVYFCQQYDSSPPMYTFGQGTKLEIRR

- binding [7]: binds
- binding [8]: binds
B4: TBRE1049 (antibody, V domains shown)
VH: PVQLVQSGAEVKKPGESLKISCKGSGYSFTTYWIGWVRQMPGKGLEWMGIIYPGDSDTRYSPSFQGQVTISADKSISTAYLQWNSLKASDTAMYYCAMDNSGSGGVDYWGQGTLVTVSS
VL: LYELTQPPSVSVSPGQTARITCSGDALPKKYAYWYQQKSGQAPVLVIYEDSKRPSGIPERFSGSSSGTMATLTISGAQVEDEADYYCYSTDSSGNHGVFGGGTKLTVLG

- binding [9]: binds
- binding [10]: binds
B5: TCOL1002 (antibody, V domains shown)
VH: QVHLVQSGAEVKRPGASVKVSCKGSGYTLNNDVAFSWVRQAPGQGPEWLGWINAYQGVTNISPNFRARVTMTTDTSTNTIYMDLQNLRSDDTAIYYCARDRQGLGRMDVWGQGTTVIVSS
VL: DIQMTQSPSSLSASLGDRITITCRATQSISNYLNWYQQKSGKVPELLIYAASHLQSGVPSRFSGTGSGTDFSLTISGLQPEDFATYYCQQTYTTPRTFGRGTTVEIRR

- binding [11]: binds
- binding [12]: binds
B6: THNS1002 (antibody, V domains shown)
VH: EGQLLESGGGLVQPGGSLRLSCEASGFTFSFSSYAMSWVRQAPGRGLEWVSVTGGSGYTKYYADSVKGRFTVSRDNSKNTLYLQMNSLRAEDTALYYCARRSTSSPSFSTLDVWGRGATVIVSS
VL: QSALTQPASVSGSPGQSITISCTGTSSDVGGFNYVSWYQQHPGKAPKLLIYDVSERPSGVSSRFSGSKSGNTASLTISGLQAEDEADYYCSSYTSSTTVLFGGGTKLTVLG

- binding (protein array): binds
- binding [13]: binds
B7: TCOL1005 (antibody, V domains shown)
VH: QVRLVESGGGLVQPGGFLRLSCAASGFTFSDYEMNWVRQAPGKGLEWISHIGSSGTYADSVKGRFTISRDNAKNSLYLQMSSLRAEDAGVYYCATTRNSAFLNWGQGTLVTVSS
VL: EIVLTQSPATLSLSPGEGATLSCRASQSVSGYLAWYQQKPGQAPRLLIYDASNRATGIPARFSGSGSGTDFTLTISSLEPEDFAVYYCQQRSKWPLTFGGGTQVEIKR

- binding [14]: binds
- binding [15]: binds
B8: TESO1005 (antibody, V domains shown)
VH: PVQLQESGPGLVKPSQTLSLTCTVSGGSITSGSYFWSWIRQPAGEGLEWIGRIYTSGSTNYNPSLKSRVTISADTSKNHFSLELSSVTAADTAMYFCARERFGQGALDYWGQGTLVTVSS
VL: DIQMTQSPSTLSASVGDRVTITCRASQSISGWLAWYQQKPGKAPQLLIYLVSSLESGVPSRFSGSGSGTEFTLTISSLQPDDFATYYCQHYDSYIGTFGQGTKVEIKR

- binding [16]: binds
- binding [17]: binds
B9: TCER1007 (antibody, V domains shown)
VH: PVQLQESGPGLVKPSETLSLTCTVSGGSIDSYYWSWLRQPPGRGLEWIGYIFYSGITNYSPSLKSRVTISVDTSKNQFSLKLNSVTAADTAVYYCARELPVIGRRTFDIWGQGTMVTVSS
VL: DIQMTQSPSSLSASVGDRVTITCRASQTISTYLNWYQQKPGKAPKLLIYAASSLQSGVPSRFSGSGSETDFTLTISSLQPEDFATYYCQQSYNARTFGQGTKVEIKR
